17 compounds from PubChem BioAssay AID493014 (National Center for Advancing Translational Sciences (NCATS), 2011) can be followed below.

Some of the results follow. Further columns of the screen follow, without active or inactive calls. The list favours compounds with an active or inconclusive main result. The note in brackets gives the kind of curve behind each potency; many fits are weak.

A short description of the assay: qHTS Assay to Find Inhibitors of Chronic Active B-Cell Receptor Signaling. The following applies: ABC-DLBCL IkBa-CBG/CBR reporter, luminescence ratio (green luciferase fused to IkBa over red control in TMD8 lymphoma cells), 4 h. Summed up:
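TMD8 human ABC-DLBCL cells with doxycycline-inducible IκBα–green luciferase fusion and unfused red luciferase, in 0.5% FBS medium; compounds up to 46 uM, 4 h at 37C. Green/red luminescence ratio, filter-overlap corrected, fitted to concentration-response curves.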
For orientation: qHTS replaces the single test concentration by a dilution series.

The mark [1] stands for this setting: measured here: CBR red luminescence, cell number.
The mark [2] stands for this setting: measured here: IkBa-CBG green luminescence.

As usually defined, the AC50 is the concentration giving half of the maximal activity seen.

`COc1ccc(OCc2nc3ccccc3[nH]2)cc1`: under setting [1], the AC50 is 6.51 µM [falling, partial curve].
Take `O=C(NCc1cccc(CNC(=O)Nc2cccc(O)c2)c1)Nc1cccc(O)c1`: the AC50 under setting [1] is 3.55 µM [rising, single point].
Regarding `CCC(C(=O)Nc1cc(C)nn1-c1nc(C)cc(C)n1)c1ccccc1` (centres undefined), the AC50 under setting [1] is 10 µM [falling, partial curve, poor fit].
As to `CCN(C(=O)c1ccc(C(C)(C)C)cc1)c1nnc(Cn2nnc3ccccc32)s1`, the AC50 under setting [1] was 35.5 µM [falling, single point].
With `Cc1ccc(C)c(N2CCN(C(=O)CSc3ccsc3[N+](=O)[O-])CC2)c1`, under setting [1], the AC50 is 0.259 µM [falling, full curve, poor fit].
For `CC(C)N(C(=O)CSc1nnc(Cc2csc(Nc3ccccc3)n2)o1)C(C)C`, the AC50 under setting [1] was 6.31 µM [rising, single point].
In the case of `O=C(C1CCN(S(=O)(=O)c2ccc(Cl)cc2)CC1)N1CCN(c2ccccn2)CC1`, the AC50 under setting [1] is 25.9 µM [falling, partial curve].
`NS(=O)(=O)c1ccc(NCC2COc3ccccc3O2)c([N+](=O)[O-])c1` (centres undefined): the AC50 under setting [1] was 1.12 µM [rising, full curve, poor fit].
Take `O=C(COC(=O)c1cccc(S(=O)(=O)NCc2ccccc2)c1)Nc1ccccc1OC(F)F`: the AC50 under setting [1] is 0.731 µM [rising, full curve, poor fit].
With `Fc1ccc(Nc2nc(SCc3ccccc3F)nc3ccccc23)cc1`, the AC50 reads like this: under setting [1], 35.5 µM [falling, single point]; under setting [2], 14.1 µM [rising, partial curve, poor fit].
With `O=C(NCC(c1ccco1)N1CCN(c2ccccc2F)CC1)c1ccco1` (centres undefined), under setting [1], the AC50 is 32.6 µM [rising, single point].
In the case of `Cc1nnc(-c2cnn(C)c2N)n1Cc1cccc(Cl)c1`, the AC50 under setting [1] was 6.51 µM [falling, single point].
`O=C(Nc1cccnc1)c1cc(-c2ccc(F)cc2)on1`: the AC50 under setting [1] is 2.24 µM [falling, full curve].
As for `COc1ccc(CN(CC2CCC(C(=O)O)CC2)C(=S)Nc2cc(Cl)ccc2OC)cc1` (centres undefined), the AC50 under setting [2] was 12.6 µM [rising, partial curve, poor fit].
Consider `COC(=O)c1cnn2c1C(=O)N(Cc1cccs1)CC2`, for which, under setting [1], the AC50 was 0.282 µM [falling, full curve, poor fit].
In the case of `COc1ccccc1-c1nnc2sc(-c3ccc(N(C)C)cc3)nn12`, the AC50 reads like this: under setting [1], 2.06 µM [rising, full curve]; under setting [2], 1.84 µM [falling, full curve].
In the case of `CC(C)C(=O)N1CCN(c2ccccc2NC(=O)COc2ccccc2)CC1`, the AC50 under setting [1] is 25.1 µM [falling, single point].
